Measurements as given in PubChem BioAssay AID504444 (National Center for Advancing Translational Sciences (NCATS), 2011).
The whole screen tested about 360,000 compounds, of which about 7,500 (2.1%) were called active. This list was built around the results that the source calls inconclusive (neither active nor inactive); the mix of calls is not that of the screen. The call rests on the fitted dose curve; in most records, active means well fitted inhibition curve with a large enough effect; inconclusive means small, poorly fitted or top-dose-only effect, or effect the other way; inactive means flat fitted curve, though single readings scatter. Potencies beside an inconclusive call are fits to weak or partial responses and may not hold up.
On the % scale 0 is the no-effect control and ±100 the full control effect; potency means the concentration at half of the fitted maximal effect.

Assay: Nrf2 qHTS screen for inhibitors; further: nearly all actives have a fitted effect of over 60% in size
Conditions: A549 ARE-Fluc reporter, luciferase luminescence, 18-24 h; activity change, negative = inhibition: at 46 µM (top of the series)
Outline: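 In this cell-based qHTS, ARE-driven firefly luciferase in A549 cells reports Nrf2 activity; the luminescent signal after BugLite lysis is the measured value, with a prior CellTiter-Fluor read for cell health.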
With `O=S(=O)(/C=C/C=C/S(=O)(=O)c1ccccc1)c1ccccc1` the Potency was active: 25.9 µM.
In the case of `OCCC1CN(Cc2cccn2-c2cccnc2)CCN1Cc1ccccc1` (configuration not stated), the Potency is reported as inconclusive: 14.6 µM [activator, partial curve, poor fit].
For `Cc1ccc(C2CC(=O)c3cnc(N4CCc5ccccc5C4)nc3C2)cc1` (configuration not stated), the “activity change, negative = inhibition” value was inactive: 0.948%.
For `CC(C)=CC(=O)Nc1nnc(-c2ccccc2C)s1`, the Potency was inconclusive: 2.91 µM [activator, partial curve, poor fit].
With `CC(=O)Nc1ccc(/C=C2\Sc3ccccc3C2=O)cc1` the “activity change, negative = inhibition” value was inactive: 9.31%.
In the case of `CCOC(=O)c1cnc2c(C#N)cnn2c1N`, the Potency is reported as inconclusive: 0.0052 µM [falling, full curve, poor fit].
With `CN(C(=O)Cn1cc(S(=O)(=O)Cc2ccccc2Cl)c2ccccc21)c1ccccc1` the “activity change, negative = inhibition” value was inactive: -8.69%.
In the case of `COc1ccc(-c2nn3c(-c4ccccc4C)nnc3c3ccccc23)cc1`, the Potency is reported as inconclusive: 18.4 µM [falling, single point].
In the case of `Cc1cc(/C=C2\C(=N)N3N=CSC3=NC2=O)c(C)n1Cc1ccccc1`, the Potency is reported as inconclusive: 4.11 µM [activator, partial curve, poor fit].
With `O=C(NNC(=O)C1CCN(Cc2ccc(F)cc2Cl)CC1)Nc1ccc([N+](=O)[O-])cc1` the Potency was inconclusive: 29.1 µM [falling, partial curve, poor fit].
In the case of `O=C(CS(=O)(=O)c1ccc(Br)cc1)N1CCOCC1`, the “activity change, negative = inhibition” value is reported as inactive: 7.52%.
With `CCOCCCNc1ncnc2onc(C)c12` the “activity change, negative = inhibition” value was inactive: 23.9%.
With `C/C(=N\Nc1ccccn1)c1ccc(S(=O)(=O)NCc2ccco2)cc1` the Potency was inconclusive: 7.31 µM [falling, partial curve, poor fit].
In the case of `CCN(CC)C(=O)CSc1nc2cc(OC)c(OC)cc2c(=O)n1Cc1ccc(Cl)cc1`, the Potency is reported as inconclusive: 11.6 µM [falling, partial curve, poor fit].
In the case of `CC(C)c1nc2sc3c(SCC(=O)NCc4ccco4)ncnc3c2c2c1CCC2`, the Potency is reported as inconclusive: 29.1 µM [falling, single point].
For `CC(C)(C)c1ccc(N=C2SCC(=O)N2Cc2cccs2)cc1`, the Potency was inconclusive: 20.6 µM [falling, partial curve, poor fit].
With `O=C1C=C(Nc2ccc(F)cc2)c2ccccc2C1=O` the Potency was inconclusive: 18.4 µM [falling, single point].
For `CCOc1ccc(/C=C2/Sc3ccc(C(=O)N4CCOCC4)cc3N(C)C2=O)cc1OC`, the Potency was inconclusive: 13 µM [falling, partial curve].
In the case of `Cc1ccc(C(C(=O)Nc2ccc(C(C)C)cc2)N(C)C(=O)c2ccc(=O)[nH]c2)cc1` (configuration not stated), the Potency is reported as inconclusive: 29.1 µM [falling, single point].
With `Cc1cccc(NC(=O)c2ccccc2Br)n1` the Potency was inconclusive: 10.3 µM [activator, partial curve, poor fit].
For `O=C(c1cc(-c2ccco2)on1)N1CCCc2ccccc21`, the Potency was inconclusive: 8.2 µM [activator, partial curve, poor fit].
In the case of `O=c1cc(-c2ccccc2)nc2nc(-c3ccccc3)[nH]n12`, the Potency is reported as inconclusive: 7.31 µM [activator, partial curve].
In the case of `CC/C(=N\NC(=O)CSCc1ccc(Cl)cc1)c1ccc2c(c1)OCCO2`, the Potency is reported as inconclusive: 14.6 µM [falling, partial curve, poor fit].
For `COc1ccc(C)cc1N(C(=O)c1snc(C(N)=O)c1N)C(C(=O)NC1CCCC1)c1ccc(F)cc1` (configuration not stated), the Potency was inconclusive: 29.1 µM [falling, single point].
For `FC(F)(F)c1cc(-c2ccco2)nc(-n2nc(C(F)(F)F)cc2C2CC2)n1`, the “activity change, negative = inhibition” value was inactive: 0.781%.
With `O=S(=O)(c1ccc(Br)s1)N1CCN(CCOc2ccccc2)CC1` the Potency was inconclusive: 20.6 µM [falling, partial curve].
With `CN(C)C(=O)COC(=O)c1ccccc1Nc1ccc(SC(F)F)cc1` the Potency was inconclusive: 23.1 µM [activator, partial curve].
For `COC(=O)c1c(NC(=O)C(C)(C)C)sc2c1C(C(=O)OC)CC2` (configuration not stated), the “activity change, negative = inhibition” value was inactive: -15.5%.
In the case of `CNC(=O)/C(C#N)=C/c1c(N(Cc2ccccc2)Cc2ccccc2)nc2c(C)cccn2c1=O`, the Potency is reported as active: 25.9 µM.
For `CCCn1c(/N=C/c2ccc3c(c2)OCO3)nc2ccccc21`, the Potency was inconclusive: 0.82 µM [falling, partial curve, poor fit].
In the case of `COc1ccc(CNc2ncnc3onc(-c4ccc(F)cc4)c23)cc1`, the Potency is reported as inconclusive: 4.11 µM [activator, partial curve, poor fit].
With `CC(NC(=O)c1cc(S(=O)(=O)N(C)C)ccc1N1CCCC1)C1CC2CCC1C2` (configuration not stated) the Potency was inconclusive: 20.6 µM [falling, single point].
For `COCCN(Cc1cc2cc3c(cc2nc1Cl)OCO3)C(=O)c1cccc(C)c1`, the Potency was inconclusive: 29.1 µM [falling, single point].
In the case of `CCCOc1ccc(C(=O)Nc2ccc(S(=O)(=O)N3C[C@@H]4C[C@@H](C3)c3cccc(=O)n3C4)cc2)cc1`, the Potency is reported as inconclusive: 16.4 µM [falling, single point].
In the case of `CC1(c2ccc(Cl)cc2)NC(=O)N(CC(=O)Nc2ccc(N3CCCCC3)cc2)C1=O` (configuration not stated), the “activity change, negative = inhibition” value is reported as inactive: 3.63%.
For `O=C(CSCc1ccc([N+](=O)[O-])cc1)NC1CC1`, the “activity change, negative = inhibition” value was inactive: 0.967%.
With `COc1cc(/C=C(\C#N)c2nc3ccccc3[nH]2)ccc1OCc1cccc(C(F)(F)F)c1` the Potency was inconclusive: 29.1 µM [falling, single point].
With `COc1ccc(C(=O)N2CCCC(c3nc(-c4ccc(OC)c(OC)c4)no3)C2)c(OC)c1` (configuration not stated) the “activity change, negative = inhibition” value was inactive: -7.09%.
With `Nc1c(C(=O)NCc2ccco2)c2nc3ccccc3nc2n1CCc1ccc(F)cc1` the Potency was inconclusive: 2.31 µM [falling, full curve].
For `Cc1ccc(C)c(OCC(=O)N(C)CC(=O)Nc2ccc(Cl)c(C(F)(F)F)c2)c1`, the Potency was inconclusive: 4.61 µM [falling, full curve, poor fit].
For `CCOc1ccc(S(=O)(=O)Nc2cc(F)ccc2F)c2cccnc12`, the Potency was inconclusive: 29.1 µM [falling, single point].
With `Cc1cc(NC(=O)c2noc3c2CCCC3)nn1Cc1ccc(Cl)cc1` the Potency was active: 23.1 µM.
